The list shows a part of the results.
Legend:
Assay in all cases: log2 fold change, soluble protein after heating vs DMSO (PISA); higher = thermal stabilisation; K562 lysate, 10 uM; active = over 0.2 and 3.5 SD of the protein, either way, in both replicates (recomputed)
quisinostat = compound: Cn1cc(CNCC2CCN(c3ncc(C(=O)NO)cn3)CC2)c2ccccc21 [quisinostat]
Procedure, shortened: (§1)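 Pellets of K562 cells were dounce-homogenised in PBS pH 7.4 with 1 mM MgCl2, and the crude extract was held at 1 mg/mL protein for a 30 min treatment with 10 μM compound. Aliquots were heated for 3 min over 48°C-58°C and pooled before NP-40 was added to 0.5% at 4°C. The supernatant from 21,000xg for 90 min was quantified by TMTpro 16plex LC-MS/MS with channel sums equalised. Values are reported from duplicates as log-two fold change in thermal stability relative to solvent controls.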

The chains behind the UniProt entries cited, without tags or fusion partners. Where a name states a change or a piece, a line headed by the entry shows the natural chain unless it says otherwise.
UniProt P35325: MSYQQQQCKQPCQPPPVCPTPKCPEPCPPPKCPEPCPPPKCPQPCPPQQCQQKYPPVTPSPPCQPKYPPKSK
UniProt Q16842: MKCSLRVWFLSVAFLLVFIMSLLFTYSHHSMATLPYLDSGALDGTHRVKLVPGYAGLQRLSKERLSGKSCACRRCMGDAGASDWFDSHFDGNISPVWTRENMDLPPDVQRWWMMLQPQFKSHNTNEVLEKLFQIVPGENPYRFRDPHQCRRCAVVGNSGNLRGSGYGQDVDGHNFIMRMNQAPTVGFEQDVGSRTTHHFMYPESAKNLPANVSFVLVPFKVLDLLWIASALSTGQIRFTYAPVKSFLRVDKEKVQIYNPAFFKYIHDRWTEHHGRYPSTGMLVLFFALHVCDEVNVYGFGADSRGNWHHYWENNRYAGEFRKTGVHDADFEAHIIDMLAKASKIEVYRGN
UniProt Q9Y2D8: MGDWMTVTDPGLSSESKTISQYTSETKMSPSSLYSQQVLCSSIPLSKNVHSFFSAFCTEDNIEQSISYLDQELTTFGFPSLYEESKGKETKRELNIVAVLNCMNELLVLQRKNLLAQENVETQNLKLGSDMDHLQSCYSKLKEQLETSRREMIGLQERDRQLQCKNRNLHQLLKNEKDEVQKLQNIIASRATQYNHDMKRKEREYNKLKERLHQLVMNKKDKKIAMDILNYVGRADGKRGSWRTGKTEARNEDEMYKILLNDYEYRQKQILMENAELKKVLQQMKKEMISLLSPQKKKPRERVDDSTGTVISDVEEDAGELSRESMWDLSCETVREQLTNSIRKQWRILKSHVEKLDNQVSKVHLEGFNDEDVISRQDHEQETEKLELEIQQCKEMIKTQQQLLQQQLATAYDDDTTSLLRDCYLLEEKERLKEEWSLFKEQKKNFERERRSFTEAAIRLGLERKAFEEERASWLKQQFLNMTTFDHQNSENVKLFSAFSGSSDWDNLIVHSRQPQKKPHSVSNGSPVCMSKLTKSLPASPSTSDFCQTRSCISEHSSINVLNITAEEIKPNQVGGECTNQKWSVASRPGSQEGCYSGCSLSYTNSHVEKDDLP
UniProt P81877: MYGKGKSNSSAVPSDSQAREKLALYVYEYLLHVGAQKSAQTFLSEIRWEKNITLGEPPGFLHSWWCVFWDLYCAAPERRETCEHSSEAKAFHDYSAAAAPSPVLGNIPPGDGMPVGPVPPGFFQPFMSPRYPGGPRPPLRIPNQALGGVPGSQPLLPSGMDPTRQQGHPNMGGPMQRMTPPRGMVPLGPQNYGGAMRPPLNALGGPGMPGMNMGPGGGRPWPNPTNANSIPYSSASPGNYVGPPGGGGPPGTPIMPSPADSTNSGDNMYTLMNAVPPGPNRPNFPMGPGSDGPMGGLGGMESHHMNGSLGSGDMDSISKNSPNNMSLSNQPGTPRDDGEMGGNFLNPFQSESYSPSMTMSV
UniProt Q8N3U4: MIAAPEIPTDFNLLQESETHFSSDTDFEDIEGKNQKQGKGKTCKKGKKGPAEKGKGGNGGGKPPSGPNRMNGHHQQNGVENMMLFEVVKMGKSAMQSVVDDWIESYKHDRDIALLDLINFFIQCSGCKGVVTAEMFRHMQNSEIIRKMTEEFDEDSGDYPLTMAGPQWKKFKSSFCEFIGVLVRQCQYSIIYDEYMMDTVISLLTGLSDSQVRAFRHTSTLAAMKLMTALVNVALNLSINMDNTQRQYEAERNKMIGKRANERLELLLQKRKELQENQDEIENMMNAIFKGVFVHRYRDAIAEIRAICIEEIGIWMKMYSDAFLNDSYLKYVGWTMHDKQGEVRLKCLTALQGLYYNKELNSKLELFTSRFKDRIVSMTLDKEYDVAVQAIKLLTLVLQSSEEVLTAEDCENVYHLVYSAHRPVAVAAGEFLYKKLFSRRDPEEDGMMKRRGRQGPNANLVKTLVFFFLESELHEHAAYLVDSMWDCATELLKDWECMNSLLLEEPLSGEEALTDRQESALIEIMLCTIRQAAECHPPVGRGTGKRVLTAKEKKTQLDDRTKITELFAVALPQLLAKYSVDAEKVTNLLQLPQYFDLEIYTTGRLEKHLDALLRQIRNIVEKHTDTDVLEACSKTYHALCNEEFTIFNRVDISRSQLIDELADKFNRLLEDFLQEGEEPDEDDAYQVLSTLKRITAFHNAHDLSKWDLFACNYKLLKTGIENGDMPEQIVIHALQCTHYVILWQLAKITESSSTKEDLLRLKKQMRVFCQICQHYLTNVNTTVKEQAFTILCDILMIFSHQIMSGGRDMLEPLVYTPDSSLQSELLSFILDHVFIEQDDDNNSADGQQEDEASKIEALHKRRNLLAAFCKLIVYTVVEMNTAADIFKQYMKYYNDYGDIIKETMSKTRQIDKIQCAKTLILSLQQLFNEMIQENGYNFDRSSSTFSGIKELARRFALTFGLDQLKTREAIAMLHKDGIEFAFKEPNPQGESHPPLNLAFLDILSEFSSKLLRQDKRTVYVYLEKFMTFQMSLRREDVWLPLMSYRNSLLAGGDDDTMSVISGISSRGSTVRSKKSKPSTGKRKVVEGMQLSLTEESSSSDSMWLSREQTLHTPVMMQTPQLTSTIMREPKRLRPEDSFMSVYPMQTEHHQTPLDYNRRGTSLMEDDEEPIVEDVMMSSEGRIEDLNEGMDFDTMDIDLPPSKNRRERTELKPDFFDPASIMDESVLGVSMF
UniProt Q9Y6N5: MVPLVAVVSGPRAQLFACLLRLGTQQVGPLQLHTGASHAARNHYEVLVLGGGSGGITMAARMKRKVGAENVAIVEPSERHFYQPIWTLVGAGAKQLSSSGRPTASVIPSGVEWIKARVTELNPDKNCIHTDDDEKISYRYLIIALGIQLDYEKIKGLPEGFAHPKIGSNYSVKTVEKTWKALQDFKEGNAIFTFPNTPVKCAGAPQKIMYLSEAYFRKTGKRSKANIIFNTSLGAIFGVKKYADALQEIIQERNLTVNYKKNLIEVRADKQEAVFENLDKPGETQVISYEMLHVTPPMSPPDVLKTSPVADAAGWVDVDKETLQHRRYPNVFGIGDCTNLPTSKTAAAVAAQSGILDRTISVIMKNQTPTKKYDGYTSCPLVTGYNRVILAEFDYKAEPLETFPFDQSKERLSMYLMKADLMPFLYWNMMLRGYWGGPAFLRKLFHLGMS
UniProt Q96DR4, whole entry, looked up: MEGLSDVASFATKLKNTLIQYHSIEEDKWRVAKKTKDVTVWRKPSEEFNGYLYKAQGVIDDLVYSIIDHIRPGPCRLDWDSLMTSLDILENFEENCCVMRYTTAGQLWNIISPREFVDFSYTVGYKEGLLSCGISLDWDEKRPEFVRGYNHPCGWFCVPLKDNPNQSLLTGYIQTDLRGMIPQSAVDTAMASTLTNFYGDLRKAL
UniProt Q8TCT8: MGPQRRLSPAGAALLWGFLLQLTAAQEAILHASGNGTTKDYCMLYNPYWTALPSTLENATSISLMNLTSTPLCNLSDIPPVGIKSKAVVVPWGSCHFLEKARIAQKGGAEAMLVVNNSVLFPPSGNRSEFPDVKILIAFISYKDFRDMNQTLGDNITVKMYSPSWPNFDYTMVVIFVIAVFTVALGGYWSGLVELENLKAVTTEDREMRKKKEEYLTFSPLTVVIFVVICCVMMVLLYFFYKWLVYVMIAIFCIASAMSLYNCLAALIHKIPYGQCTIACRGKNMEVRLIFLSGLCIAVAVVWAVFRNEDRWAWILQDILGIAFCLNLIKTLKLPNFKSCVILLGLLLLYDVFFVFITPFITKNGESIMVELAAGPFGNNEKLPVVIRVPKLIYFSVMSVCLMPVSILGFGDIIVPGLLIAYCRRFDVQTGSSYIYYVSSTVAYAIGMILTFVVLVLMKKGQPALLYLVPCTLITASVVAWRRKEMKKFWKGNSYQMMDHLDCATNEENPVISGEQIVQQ

[1] = compound: NC(=O)Nc1cc(-c2cccc(F)c2)sc1C(=O)N[C@H]1CCCNC1
Procedure, shortened: as §1

[2] = compound: NC(=O)c1cnc(N[C@@H]2CCCC[C@@H]2N)nc1Nc1cccc(-n2nccn2)c1
Procedure, shortened: as §1

[3] = compound: NC1(c2ccc(-c3nc4ccn5c(=O)[nH]nc5c4cc3-c3ccccc3)cc2)CCC1
Procedure, shortened: as §1

vorinostat = compound: O=C(CCCCCCC(=O)Nc1ccccc1)NO [vorinostat]
Procedure, shortened: as §1

silmitasertib = compound: O=C(O)c1ccc2c(c1)nc(Nc1cccc(Cl)c1)c1ccncc12 [silmitasertib]
Procedure, shortened: as §1

[4] = compound: O=C1NC(=O)C(c2cnc3ccccn23)=C1c1cn2c3c(cc(F)cc13)CN(C(=O)N1CCCCC1)CC2
Procedure, shortened: as §1

entospletinib = compound: c1cn2cc(-c3ccc4cn[nH]c4c3)nc(Nc3ccc(N4CCOCC4)cc3)c2n1 [entospletinib]
Procedure, shortened: as §1

dasatinib = compound: Cc1nc(Nc2ncc(C(=O)Nc3c(C)cccc3Cl)s2)cc(N2CCN(CCO)CC2)n1 [dasatinib]
Procedure, shortened: as §1

[5] = compound: Cn1cc(-c2ccc3c(c2)CCN3C(=O)Cc2cccc(C(F)(F)F)c2)c2c(N)ncnc21
Procedure, shortened: as §1

[6] = compound: NCC(=O)Nc1ccc(-n2nc(C(F)(F)F)cc2-c2ccc3c(ccc4ccccc43)c2)cc1
Procedure, shortened: as §1

nilotinib = compound: Cc1cn(-c2cc(NC(=O)c3ccc(C)c(Nc4nccc(-c5cccnc5)n4)c3)cc(C(F)(F)F)c2)cn1 [nilotinib]
Procedure, shortened: as §1

[7] = compound: Cc1nc(Nc2n[nH]c3c2CN(C(=O)N[C@H](CN(C)C)c2ccccc2)C3(C)C)c2sccc2n1
Procedure, shortened: as §1

[8] = compound: Cc1ncc(-c2ccnc(Nc3ccc(S(C)(=O)=O)cc3)n2)n1C(C)C
Procedure, shortened: as §1

tipifarnib = compound: Cn1cncc1[C@@](N)(c1ccc(Cl)cc1)c1ccc2c(c1)c(-c1cccc(Cl)c1)cc(=O)n2C [tipifarnib]
Procedure, shortened: as §1

Measured: log2 fold change

SPRR2B (UniProt P35325)
inactive: quisinostat -0.041 | [1] -0.099 | [2] 0.037 | [3] 0.149 | vorinostat -0.069 | silmitasertib 0.05 | [4] 0.194 | entospletinib -0.019

SRP14 (UniProt H0YLW0)
inactive: dasatinib 0.037 | [5] -0.177 | quisinostat -0.6 | [1] 0.158 | [2] -0.028 | [3] -0.247 | vorinostat 0.191 | silmitasertib -0.107 | [4] 0.37

ST3GAL2 (UniProt Q16842)
inactive: dasatinib -0.015 | [5] 0.043 | quisinostat 0.045 | [1] 0.064 | [2] -0.02 | [3] -0.008 | [6] 0.04 | vorinostat 0.076 | silmitasertib 0.028 | [4] -0.028 | entospletinib 0.001

SSX2IP (UniProt Q9Y2D8)
inactive: nilotinib -0.008 | [7] 0.073 | [8] 0.006 | tipifarnib -0.055 | [6] 0.006 | entospletinib 0.079

SSBP2 (UniProt P81877)
inactive: dasatinib 0.184 | [5] -0.122 | quisinostat 0.021 | [1] -0.097 | [3] -0.103 | [6] -0.076 | vorinostat -0.038 | silmitasertib -0.398 | [4] -0.117 | entospletinib -0.055

STAG2 (UniProt Q8N3U4)
inactive: quisinostat -0.047 | [1] -0.037 | [2] -0.006 | [3] -0.005 | vorinostat -0.036 | silmitasertib -0.134 | [4] -0.102 | entospletinib 0.036

SQOR (UniProt Q9Y6N5)
inactive: dasatinib 0.237 | [5] -0.081 | quisinostat 0.095 | [1] 0.017 | [2] -0.013 | [3] 0.041 | vorinostat 0.159 | silmitasertib 0.048 | [4] 0.102 | entospletinib -0.045

STARD4 (UniProt Q96DR4)
inactive: entospletinib -0.166

SPPL2A (UniProt Q8TCT8)
inactive: quisinostat -0.21 | [1] 0.046 | [2] 0 | [3] -0.072 | [6] 0.407 | vorinostat -0.106 | silmitasertib -0.069 | [4] 0.047 | entospletinib 0.141

SRGAP2, A0A075B7B5
inactive: quisinostat 0.072 | [1] -0.086 | [4] 0.03

Source: the supplement of paper PMC10849652
